At least one peptide structure holds a part that was inferred or is arguable (an end, a ring closure or a residue). Ends that are not written are not given here.
Tested on: antibody S7
Assay: Competitive ELISA, inhibition of antibody S7 binding to GBS
Parameters: species or system murine
Conditions: peptide and antibody premixed one hour, GBS-coated wells

FDTGAFDPDWPAC
Inhibition of antibody S7 binding to GBS by free peptide: no inhibition
